Experimental data reported in patent publication US9611485B2, “Polynucleotide and polypeptide sequences associated with herbicide tolerance” (priority 2010, dated 2017).
No dose or concentration is given here for some results.

Test system: soybean lines
Type: in vivo, Glycine max
Conditions: of 116 elite soybean lines screened

For `Cc1nn(-c2cc(NS(C)(=O)=O)c(Cl)cc2Cl)c(=O)n1C(F)F` [sulfentrazone], the “number of soybean lines showing at least some tolerance” value was 102 and the “number of soybean lines showing high sensitivity” value was 11.
